Experimental data: PubChem BioAssay AID1259327 (Drosophila RNAi Screening Center, 2017)

- Purpose: 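Knock-downs altering cellular ATP with no metal added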
- Cells: Drosophila S2R+ cells
- Reagents: long dsRNA against Drosophila genes
- Time to read-out: 5 days (water added on day 4, read one day later)
- Conditions: water added as vehicle, no metal, one day before read-out
- Detection: 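Luciferase ATP signal per well, normalised to plate mean, duplicate average converted to z-score across plates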
- Direction: ATP z-score: higher = more total ATP than typical wells; ATP luminescence: higher = more total ATP
- Call rule: 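Called active when the ATP z-score exceeds 1.5 or falls below -1.5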
- Calls: active = hit: ATP up or down; inactive = no clear ATP change
Shown is one part, drawn at random, of about 3,100 reagents tested. In the full data, 378 (12%) are marked active. 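Hits include both directions; z-score sign shows ATP rise or fall; raw luminescence values are not plate-normalised.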 The numbers tell different reagents against one gene apart. Names joined by + are all predicted targets of the reagent. Not stated in the record: the amount of reagent.

bw (brown) #1 scored ATP z-score, duplicate mean -0.413; ATP luminescence, replicate 1 (RLU) = 6.45e5; ATP luminescence, replicate 2 (RLU) = 7.54e5; inactive. After knock-down of bw (brown) #2 the results were ATP z-score, duplicate mean 0.0879; ATP luminescence, replicate 1 (RLU) = 7.32e5; ATP luminescence, replicate 2 (RLU) = 7.49e5; inactive. Depletion of ACXD (Adenylyl cyclase X D) gave: ATP z-score, duplicate mean 0.219; ATP luminescence, replicate 1 (RLU) = 7.34e5; ATP luminescence, replicate 2 (RLU) = 1.02e6; inactive. Osi4 (Osiris 4) #1 showed ATP z-score, duplicate mean 0.506; ATP luminescence, replicate 1 (RLU) = 1.02e6; ATP luminescence, replicate 2 (RLU) = 9.03e5; inactive. Osi4 (Osiris 4) #2 showed ATP z-score, duplicate mean -0.788; ATP luminescence, replicate 1 (RLU) = 3.89e5; ATP luminescence, replicate 2 (RLU) = 4.35e5; inactive. For SerT (Serotonin transporter) #1 the deposit lists ATP z-score, duplicate mean 0.267; ATP luminescence, replicate 1 (RLU) = 8.47e5; ATP luminescence, replicate 2 (RLU) = 6.64e5; inactive.

For SerT (Serotonin transporter) #2 the deposit lists ATP z-score, duplicate mean -0.648; ATP luminescence, replicate 1 (RLU) = 8.06e5; ATP luminescence, replicate 2 (RLU) = 6.89e5; inactive. With knock-down of CG10051, the record shows ATP z-score, duplicate mean 0.0206; ATP luminescence, replicate 1 (RLU) = 6.26e5; ATP luminescence, replicate 2 (RLU) = 6.16e5; inactive. Hacd1 (3-hydroxyacyl-CoA dehydratase 1) scored ATP z-score, duplicate mean 1.15; ATP luminescence, replicate 1 (RLU) = 4.94e5; ATP luminescence, replicate 2 (RLU) = 6.30e5; inactive. After knock-down of CG1636 + CG15343 the results were ATP z-score, duplicate mean -2.45; ATP luminescence, replicate 1 (RLU) = 3.42e5; ATP luminescence, replicate 2 (RLU) = 4.12e5; active. After knock-down of ppk15 (pickpocket 15) #1 the results were ATP z-score, duplicate mean -0.607; ATP luminescence, replicate 1 (RLU) = 5.41e5; ATP luminescence, replicate 2 (RLU) = 6.12e5; inactive. Silencing of ppk15 (pickpocket 15) #2 came out at: ATP z-score, duplicate mean 2.69; ATP luminescence, replicate 1 (RLU) = 6.73e5; ATP luminescence, replicate 2 (RLU) = 8.13e5; active.

After knock-down of CG10702 #1, the record shows ATP z-score, duplicate mean 0.581; ATP luminescence, replicate 1 (RLU) = 5.22e5; ATP luminescence, replicate 2 (RLU) = 5.17e5; inactive. CG10702 #2 scored ATP z-score, duplicate mean -1.17; ATP luminescence, replicate 1 (RLU) = 4.80e5; ATP luminescence, replicate 2 (RLU) = 4.81e5; inactive. After knock-down of CG10702 #3, the record shows ATP z-score, duplicate mean -1.2; ATP luminescence, replicate 1 (RLU) = 4.48e5; ATP luminescence, replicate 2 (RLU) = 5.09e5; inactive.

Copied from the entries so far (2 entries):
CG10702 #1 → ATP z-score, duplicate mean = 0.581; ATP luminescence, replicate 1 (RLU) = 5.22e5; ATP luminescence, replicate 2 (RLU) = 5.17e5; call = inactive
CG10702 #2 → ATP z-score, duplicate mean = -1.17; ATP luminescence, replicate 1 (RLU) = 4.80e5; ATP luminescence, replicate 2 (RLU) = 4.81e5; call = inactive

The list goes on.
After knock-down of Ork1 (Open rectifier K[+] channel 1) #1, the screen gave ATP z-score, duplicate mean -0.563; ATP luminescence, replicate 1 (RLU) = 6.00e5; ATP luminescence, replicate 2 (RLU) = 6.93e5; inactive. Silencing of Ork1 (Open rectifier K[+] channel 1) #2 gave: ATP z-score, duplicate mean 0.47; ATP luminescence, replicate 1 (RLU) = 4.94e5; ATP luminescence, replicate 2 (RLU) = 4.75e5; inactive. CG9240 gave ATP z-score, duplicate mean 1.27; ATP luminescence, replicate 1 (RLU) = 7.92e5; ATP luminescence, replicate 2 (RLU) = 8.08e5; inactive. Against snu (snustorr) #1, the entry reads ATP z-score, duplicate mean -1.35; ATP luminescence, replicate 1 (RLU) = 5.71e5; ATP luminescence, replicate 2 (RLU) = 5.62e5; inactive. After knock-down of snu (snustorr) #2 the results were ATP z-score, duplicate mean 1.78; ATP luminescence, replicate 1 (RLU) = 5.95e5; ATP luminescence, replicate 2 (RLU) = 5.77e5; active. Knock-down of OXA1L (OXA1L mitochondrial inner membrane protein) #1 came out at: ATP z-score, duplicate mean -1.52; ATP luminescence, replicate 1 (RLU) = 5.73e5; ATP luminescence, replicate 2 (RLU) = 5.65e5; active.

For OXA1L (OXA1L mitochondrial inner membrane protein) #2 the deposit lists ATP z-score, duplicate mean -0.361; ATP luminescence, replicate 1 (RLU) = 8.02e5; ATP luminescence, replicate 2 (RLU) = 7.59e5; inactive. After knock-down of CG5888 #1, the screen gave ATP z-score, duplicate mean 0.104; ATP luminescence, replicate 1 (RLU) = 3.65e5; ATP luminescence, replicate 2 (RLU) = 6.16e5; inactive. With knock-down of CG5888 #2, the screen gave ATP z-score, duplicate mean -0.131; ATP luminescence, replicate 1 (RLU) = 1.20e6; ATP luminescence, replicate 2 (RLU) = 1.05e6; inactive.
